Source: patent US10280229B2 (MEDSHINE DISCOVERY INC., priority 2014, dated 2019)

Assay: general procedure: solution-phase peptide synthesis; HOBt/pyridine (4-nitrophenyl carbonate); HATU/DIEA
Conditions: conjugation step

Substance: (S)-MTMH-Val-Cit-PABO(CO)-MMAE
- conjugation yield: 30% yield

Substance: MTM H-Val-Cit-PABO(CO)-MMAE
- conjugation yield: 10.4%
